Measured values reported in patent US20210363262A1 (AIMED BIO, published 2021).
Results are given in words; binding and its absence hold for the method and conditions named. Some binding calls cover weakened binding; strength is not graded here.

Protein sequences, listed by entry. Tags and fused reporters are not part of them. Residues count along the entry.
UniProt P08581, residues 25-932: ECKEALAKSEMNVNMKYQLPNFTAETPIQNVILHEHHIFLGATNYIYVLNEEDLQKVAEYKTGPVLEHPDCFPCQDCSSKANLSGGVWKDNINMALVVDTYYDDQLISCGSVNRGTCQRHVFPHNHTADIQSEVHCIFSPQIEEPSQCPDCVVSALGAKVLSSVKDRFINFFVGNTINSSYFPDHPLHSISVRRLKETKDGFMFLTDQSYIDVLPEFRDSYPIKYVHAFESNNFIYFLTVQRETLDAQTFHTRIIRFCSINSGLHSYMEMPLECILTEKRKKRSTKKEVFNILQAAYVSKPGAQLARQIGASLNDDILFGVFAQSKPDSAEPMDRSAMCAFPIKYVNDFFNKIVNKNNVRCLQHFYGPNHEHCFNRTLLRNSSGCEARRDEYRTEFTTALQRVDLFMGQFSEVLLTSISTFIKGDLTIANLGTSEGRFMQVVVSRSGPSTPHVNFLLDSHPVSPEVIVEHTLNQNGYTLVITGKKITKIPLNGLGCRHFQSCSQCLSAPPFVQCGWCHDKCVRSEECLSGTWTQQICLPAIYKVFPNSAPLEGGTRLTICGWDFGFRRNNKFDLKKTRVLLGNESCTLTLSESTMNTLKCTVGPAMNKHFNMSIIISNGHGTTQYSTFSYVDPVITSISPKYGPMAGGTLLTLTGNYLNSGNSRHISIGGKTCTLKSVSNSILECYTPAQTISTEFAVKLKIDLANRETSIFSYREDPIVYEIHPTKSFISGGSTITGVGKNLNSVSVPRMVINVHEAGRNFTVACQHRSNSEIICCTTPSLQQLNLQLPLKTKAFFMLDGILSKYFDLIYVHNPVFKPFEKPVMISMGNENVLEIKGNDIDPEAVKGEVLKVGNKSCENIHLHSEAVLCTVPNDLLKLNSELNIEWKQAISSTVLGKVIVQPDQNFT

Columns and labels:
[1] = target: Recombinant human c-Met (Sino biological) (human) (UniProt P08581); assay: ELISA, recombinant human c-Met coated at 50 ng/well, antibody titrated from 200 nM, anti-human Fab-HRP (parent as reference)
[2] = target: Recombinant human c-Met (Sino biological) (human) (UniProt P08581); assay: ELISA, recombinant human c-Met coated at 50 ng/well, antibody titrated from 200 nM, anti-human Fab-HRP

| Binder | binding [1] | binding [2] |
| --- | --- | --- |
| 1F12 (parent antibody), full-length human IgG1 (antibody, V domains shown) VH: EVQLLESGGGLVQPGGSLRLSCAASGFTFSNYAMSWVRQAPGKGLEWVSGISYSGGSTYYADSVKGRFTISRDNSKNTLYLQMNSLRAEDTAVYYCAKASRSCQRPACSYANGMDVWGQGTLVTVSS VL: QSVLTQPPSASGTPGQRVTISCTGSSSNIGNNYVTWYQQLPGTAPKLLIYYNNHRPSGVPDRFSGSKSGTSASLAISGLQSEDEADYYCGSWDYSLSAYVFGGGTKLTVL | binds | – |
| 1F12_H2L3, full-length human IgG1 (antibody, V domains shown) VH: EVQLLESGGGLVQPGGSLRLSCAASGFTFSNYAMSWVRQAPGKGLEWVSGISYDGGSTYYADSVKGRFTISRDNSKNTLYLQMNSLRAEDTAVYYCAKASRSCQRPACSYANGMDVWGQGTLVTVSS VL: QSVLTQPPSASGTPGQRVTISCTGSSSNIGNNYVTWYQQLPGTAPKLLIYENNHRPSGVPDRFSGSKSGTSASLAISGLQSEDEADYYCGSWDYSLSAYVFGGGTKLTVL | – | binds |
| 1F12_H2L6, full-length human IgG1 (antibody, V domains shown) VH: EVQLLESGGGLVQPGGSLRLSCAASGFTFSNYAMSWVRQAPGKGLEWVSGISYDGGSTYYADSVKGRFTISRDNSKNTLYLQMNSLRAEDTAVYYCAKASRSCQRPACSYANGMDVWGQGTLVTVSS VL: QSVLTQPPSASGTPGQRVTISCTGSSSNIGNNYVTWYQQLPGTAPKLLIYYNNHRPSGVPDRFSGSKSGTSASLAISGLQSEDEADYYCGSWDYSLSADVFGGGTKLTVL | – | binds |
| 1F12_H3L5, full-length human IgG1 (antibody, V domains shown) VH: EVQLLESGGGLVQPGGSLRLSCAASGFTFSNYAMSWVRQAPGKGLEWVSGISYSGGSKYYADSVKGRFTISRDNSKNTLYLQMNSLRAEDTAVYYCAKASRSCQRPACSYANGMDVWGQGTLVTVSS VL: QSVLTQPPSASGTPGQRVTISCTGSSSNIGNNYVTWYQQLPGTAPKLLIYYNNHRPSGVPDRFSGSKSGTSASLAISGLQSEDEADYYCGSWDYSLRAYVFGGGTKLTVL | – | binds |
| 1F12_H6L5, full-length human IgG1 (antibody, V domains shown) VH: EVQLLESGGGLVQPGGSLRLSCAASGFTFSNYAMSWVRQAPGKGLEWVSGISYSGGSTYYADSVKGRFTISRDNSKNTLYLQMNSLRAEDTAVYYCAKASRSCQRPACHYANGMDVWGQGTLVTVSS VL: QSVLTQPPSASGTPGQRVTISCTGSSSNIGNNYVTWYQQLPGTAPKLLIYYNNHRPSGVPDRFSGSKSGTSASLAISGLQSEDEADYYCGSWDYSLRAYVFGGGTKLTVL | – | binds |
